Reference: the supplement of paper PMC10849652
The list shows a part of the results. Residues, ends and D or L forms follow the SMILES beside them. *: point of attachment. Cbz = O=C(OCc1ccccc1)*

The chains behind the UniProt entries cited, without tags or fusion partners. Where a name states a change or a piece, a line headed by the entry shows the natural chain unless it says otherwise.
UniProt Q9NR96: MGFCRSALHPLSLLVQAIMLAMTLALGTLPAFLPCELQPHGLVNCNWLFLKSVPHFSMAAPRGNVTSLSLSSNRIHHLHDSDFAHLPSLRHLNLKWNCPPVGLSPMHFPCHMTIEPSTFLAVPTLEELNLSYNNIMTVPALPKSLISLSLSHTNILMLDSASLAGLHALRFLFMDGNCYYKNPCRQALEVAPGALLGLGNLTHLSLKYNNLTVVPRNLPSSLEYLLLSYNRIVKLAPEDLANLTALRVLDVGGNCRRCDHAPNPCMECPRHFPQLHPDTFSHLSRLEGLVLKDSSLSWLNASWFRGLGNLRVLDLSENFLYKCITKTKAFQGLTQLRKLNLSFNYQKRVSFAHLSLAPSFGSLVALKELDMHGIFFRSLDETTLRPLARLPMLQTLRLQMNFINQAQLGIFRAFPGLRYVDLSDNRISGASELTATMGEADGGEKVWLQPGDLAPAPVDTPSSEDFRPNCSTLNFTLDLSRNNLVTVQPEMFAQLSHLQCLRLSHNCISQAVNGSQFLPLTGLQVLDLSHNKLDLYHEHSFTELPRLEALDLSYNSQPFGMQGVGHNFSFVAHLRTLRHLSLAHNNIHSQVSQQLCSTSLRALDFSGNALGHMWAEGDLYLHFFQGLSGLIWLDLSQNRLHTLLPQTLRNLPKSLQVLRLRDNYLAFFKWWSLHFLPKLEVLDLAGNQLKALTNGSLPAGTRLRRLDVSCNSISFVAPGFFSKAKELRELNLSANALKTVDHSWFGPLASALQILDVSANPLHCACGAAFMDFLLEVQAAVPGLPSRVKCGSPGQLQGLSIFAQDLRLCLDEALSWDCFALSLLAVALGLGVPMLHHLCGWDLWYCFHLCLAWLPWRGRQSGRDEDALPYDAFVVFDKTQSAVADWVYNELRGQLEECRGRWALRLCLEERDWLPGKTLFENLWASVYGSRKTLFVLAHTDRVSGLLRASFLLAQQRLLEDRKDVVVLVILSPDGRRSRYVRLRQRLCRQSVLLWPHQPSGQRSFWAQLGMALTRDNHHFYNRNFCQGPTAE
UniProt Q8N2U0: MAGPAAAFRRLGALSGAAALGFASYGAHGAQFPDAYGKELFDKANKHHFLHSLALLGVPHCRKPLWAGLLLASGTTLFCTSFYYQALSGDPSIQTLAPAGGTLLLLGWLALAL
UniProt Q9NWH2: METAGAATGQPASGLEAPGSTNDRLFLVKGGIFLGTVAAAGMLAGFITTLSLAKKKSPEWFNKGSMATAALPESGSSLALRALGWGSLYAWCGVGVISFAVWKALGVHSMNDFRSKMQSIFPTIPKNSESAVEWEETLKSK
UniProt Q12767: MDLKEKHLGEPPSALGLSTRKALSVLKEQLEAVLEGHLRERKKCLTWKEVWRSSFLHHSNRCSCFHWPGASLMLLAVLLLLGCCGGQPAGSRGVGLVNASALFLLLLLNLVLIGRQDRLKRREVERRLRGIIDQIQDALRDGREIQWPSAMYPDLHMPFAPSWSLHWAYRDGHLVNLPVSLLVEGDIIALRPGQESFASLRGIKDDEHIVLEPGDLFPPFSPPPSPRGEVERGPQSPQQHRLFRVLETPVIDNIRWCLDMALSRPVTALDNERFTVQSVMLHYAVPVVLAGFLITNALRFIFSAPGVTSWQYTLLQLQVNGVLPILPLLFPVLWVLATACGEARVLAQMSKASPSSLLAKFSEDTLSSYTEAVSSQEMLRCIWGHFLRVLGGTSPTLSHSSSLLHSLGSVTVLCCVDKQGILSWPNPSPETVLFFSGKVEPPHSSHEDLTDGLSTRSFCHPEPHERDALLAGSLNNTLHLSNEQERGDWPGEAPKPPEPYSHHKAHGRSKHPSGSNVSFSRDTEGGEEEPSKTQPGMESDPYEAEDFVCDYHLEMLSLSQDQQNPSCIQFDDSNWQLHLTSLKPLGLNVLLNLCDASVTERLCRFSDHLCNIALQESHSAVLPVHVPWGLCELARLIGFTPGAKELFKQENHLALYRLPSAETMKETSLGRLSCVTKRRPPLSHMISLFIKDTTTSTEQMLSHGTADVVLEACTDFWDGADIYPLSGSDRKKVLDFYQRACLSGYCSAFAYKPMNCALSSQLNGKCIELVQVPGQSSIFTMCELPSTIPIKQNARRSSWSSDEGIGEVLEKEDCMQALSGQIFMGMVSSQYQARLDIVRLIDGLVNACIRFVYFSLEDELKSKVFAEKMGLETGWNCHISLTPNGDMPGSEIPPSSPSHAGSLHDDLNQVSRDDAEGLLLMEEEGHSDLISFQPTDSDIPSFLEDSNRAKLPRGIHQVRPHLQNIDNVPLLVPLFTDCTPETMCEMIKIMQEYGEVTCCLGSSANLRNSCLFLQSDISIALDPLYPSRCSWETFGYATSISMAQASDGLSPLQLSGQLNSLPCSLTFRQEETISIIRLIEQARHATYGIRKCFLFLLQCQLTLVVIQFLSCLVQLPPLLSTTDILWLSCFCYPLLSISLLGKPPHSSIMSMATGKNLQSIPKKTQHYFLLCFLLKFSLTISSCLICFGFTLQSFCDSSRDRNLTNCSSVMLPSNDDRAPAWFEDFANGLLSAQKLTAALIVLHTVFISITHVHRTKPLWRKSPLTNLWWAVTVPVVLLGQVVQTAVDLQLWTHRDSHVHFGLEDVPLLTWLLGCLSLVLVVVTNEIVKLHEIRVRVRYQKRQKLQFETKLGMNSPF
UniProt Q9BVK8: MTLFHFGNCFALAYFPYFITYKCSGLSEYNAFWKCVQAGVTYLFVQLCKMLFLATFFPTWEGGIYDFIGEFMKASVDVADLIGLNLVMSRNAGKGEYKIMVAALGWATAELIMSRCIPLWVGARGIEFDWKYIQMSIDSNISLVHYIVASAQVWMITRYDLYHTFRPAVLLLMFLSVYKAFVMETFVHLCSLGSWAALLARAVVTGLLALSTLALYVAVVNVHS
UniProt O75204: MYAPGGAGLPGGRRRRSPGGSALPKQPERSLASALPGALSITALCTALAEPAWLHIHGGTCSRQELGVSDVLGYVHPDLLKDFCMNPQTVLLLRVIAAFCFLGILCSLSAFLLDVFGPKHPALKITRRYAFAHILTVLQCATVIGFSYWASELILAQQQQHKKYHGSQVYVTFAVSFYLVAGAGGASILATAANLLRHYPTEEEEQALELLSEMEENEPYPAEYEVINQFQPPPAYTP
UniProt Q96Q45: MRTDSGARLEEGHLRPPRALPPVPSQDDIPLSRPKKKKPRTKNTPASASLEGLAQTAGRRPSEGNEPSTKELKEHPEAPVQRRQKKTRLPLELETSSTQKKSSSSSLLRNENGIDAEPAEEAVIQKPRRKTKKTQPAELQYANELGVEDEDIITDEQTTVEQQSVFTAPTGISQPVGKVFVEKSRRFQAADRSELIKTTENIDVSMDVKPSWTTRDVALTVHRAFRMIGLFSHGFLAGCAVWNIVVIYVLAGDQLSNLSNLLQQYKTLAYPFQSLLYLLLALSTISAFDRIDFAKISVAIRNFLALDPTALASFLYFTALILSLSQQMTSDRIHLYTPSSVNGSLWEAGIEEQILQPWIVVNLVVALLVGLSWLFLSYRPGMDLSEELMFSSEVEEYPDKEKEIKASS
UniProt O00206, whole entry, looked up: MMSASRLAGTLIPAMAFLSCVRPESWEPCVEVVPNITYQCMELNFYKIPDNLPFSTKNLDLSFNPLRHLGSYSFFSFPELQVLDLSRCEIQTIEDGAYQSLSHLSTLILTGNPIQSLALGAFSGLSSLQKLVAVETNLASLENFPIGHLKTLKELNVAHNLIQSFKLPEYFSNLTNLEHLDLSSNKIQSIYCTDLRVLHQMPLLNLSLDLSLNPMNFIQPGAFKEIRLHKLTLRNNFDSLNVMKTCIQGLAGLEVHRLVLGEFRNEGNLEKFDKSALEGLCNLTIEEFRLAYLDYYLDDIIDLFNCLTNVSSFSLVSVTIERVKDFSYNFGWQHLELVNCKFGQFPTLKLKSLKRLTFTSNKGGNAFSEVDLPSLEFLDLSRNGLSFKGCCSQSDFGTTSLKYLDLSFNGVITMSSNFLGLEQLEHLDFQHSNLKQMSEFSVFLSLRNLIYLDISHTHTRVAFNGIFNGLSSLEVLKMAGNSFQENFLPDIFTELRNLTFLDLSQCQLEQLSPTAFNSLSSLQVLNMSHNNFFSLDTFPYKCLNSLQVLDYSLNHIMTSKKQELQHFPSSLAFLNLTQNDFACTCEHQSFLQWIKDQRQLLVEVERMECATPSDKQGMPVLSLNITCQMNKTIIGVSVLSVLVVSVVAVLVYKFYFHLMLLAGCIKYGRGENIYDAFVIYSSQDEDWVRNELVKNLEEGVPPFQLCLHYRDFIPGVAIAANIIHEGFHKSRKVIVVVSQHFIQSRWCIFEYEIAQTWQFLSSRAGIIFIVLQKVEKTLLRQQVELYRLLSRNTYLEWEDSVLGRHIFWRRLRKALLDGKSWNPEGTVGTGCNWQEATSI
UniProt Q9HCN3: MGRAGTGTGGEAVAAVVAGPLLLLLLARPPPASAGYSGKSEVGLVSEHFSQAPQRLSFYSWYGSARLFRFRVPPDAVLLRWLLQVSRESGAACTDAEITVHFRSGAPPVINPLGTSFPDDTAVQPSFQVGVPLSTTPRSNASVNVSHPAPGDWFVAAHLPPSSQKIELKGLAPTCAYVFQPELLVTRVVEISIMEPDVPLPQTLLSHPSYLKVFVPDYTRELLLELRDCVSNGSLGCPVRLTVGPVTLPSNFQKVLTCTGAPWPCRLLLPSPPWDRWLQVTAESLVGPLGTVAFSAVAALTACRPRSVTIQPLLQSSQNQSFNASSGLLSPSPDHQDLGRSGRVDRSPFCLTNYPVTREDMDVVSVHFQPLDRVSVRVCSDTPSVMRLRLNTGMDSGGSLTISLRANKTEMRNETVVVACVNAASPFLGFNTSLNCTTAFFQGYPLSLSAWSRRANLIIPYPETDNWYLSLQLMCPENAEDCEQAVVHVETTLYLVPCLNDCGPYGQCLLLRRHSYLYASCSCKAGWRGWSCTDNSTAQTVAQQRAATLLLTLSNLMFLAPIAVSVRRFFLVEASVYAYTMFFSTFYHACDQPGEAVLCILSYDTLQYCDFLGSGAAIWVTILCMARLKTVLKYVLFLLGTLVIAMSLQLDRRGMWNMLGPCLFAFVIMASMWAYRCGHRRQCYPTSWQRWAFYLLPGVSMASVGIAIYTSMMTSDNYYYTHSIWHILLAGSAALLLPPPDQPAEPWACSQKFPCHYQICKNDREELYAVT
UniProt Q5T292: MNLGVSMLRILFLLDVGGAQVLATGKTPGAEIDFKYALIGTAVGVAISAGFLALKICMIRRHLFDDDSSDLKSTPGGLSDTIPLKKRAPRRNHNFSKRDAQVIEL
UniProt Q9Y519: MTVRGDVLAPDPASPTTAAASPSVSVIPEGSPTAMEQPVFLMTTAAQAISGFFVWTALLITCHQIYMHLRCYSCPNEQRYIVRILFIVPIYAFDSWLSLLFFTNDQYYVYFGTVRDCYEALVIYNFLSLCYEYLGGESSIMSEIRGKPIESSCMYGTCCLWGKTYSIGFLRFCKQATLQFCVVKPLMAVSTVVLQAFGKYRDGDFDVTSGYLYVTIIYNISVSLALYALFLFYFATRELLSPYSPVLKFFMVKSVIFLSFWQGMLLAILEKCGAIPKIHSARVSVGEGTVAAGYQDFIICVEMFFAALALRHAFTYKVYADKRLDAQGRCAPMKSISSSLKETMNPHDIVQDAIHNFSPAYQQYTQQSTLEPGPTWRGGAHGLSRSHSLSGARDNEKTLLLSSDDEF
UniProt Q969X1: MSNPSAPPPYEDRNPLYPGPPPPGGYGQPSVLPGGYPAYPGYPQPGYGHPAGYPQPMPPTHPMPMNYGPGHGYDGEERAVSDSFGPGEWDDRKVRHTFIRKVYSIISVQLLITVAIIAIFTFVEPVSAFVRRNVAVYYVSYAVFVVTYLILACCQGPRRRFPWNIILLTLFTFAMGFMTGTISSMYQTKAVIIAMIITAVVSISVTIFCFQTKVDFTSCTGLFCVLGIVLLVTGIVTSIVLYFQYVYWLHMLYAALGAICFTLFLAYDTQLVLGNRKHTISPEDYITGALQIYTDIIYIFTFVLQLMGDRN

How the values were obtained:
Assay in all cases: log2 fold change, soluble protein after heating vs DMSO (PISA); higher = thermal stabilisation; K562 cells, 10 uM, 30 min; active = over 0.2 and 3.5 SD of the protein, either way, in both replicates (recomputed)
ibrutinib = compound: C=CC(=O)N1CCC[C@@H](n2nc(-c3ccc(Oc4ccccc4)cc3)c3c(N)ncnc32)C1 [ibrutinib]
In short: (§1)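 Soluble protein was defined as the supernatant after 21,000xg for 90 min. It came from K562 cells at 2×10^6 cells/mL given 10 μM compound for 30 min, heated in aliquots for 3 min across 48°C-58°C, pooled, and extracted in PBS with 0.5% NP-40 at 4°C, and was quantified by TMTpro 16plex LC-MS/MS with equalised channel sums. Thermal stability against control samples, from duplicates, is reported as log2 fold change.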

[1] = compound: CC(=O)c1cnc2ccc(-c3cc(Cl)c(O)c(Cl)c3)nc2c1N[C@H]1CC[C@H](CN(C)C)CC1
In short: as §1

ralimetinib = compound: CC(C)(C)Cn1c(N)nc2ccc(-c3[nH]c(C(C)(C)C)nc3-c3ccc(F)cc3)nc21 [ralimetinib]
In short: as §1

[2] = compound: CC(C)(O)CC(=O)NCCn1ccc2ncnc(Nc3ccc(Oc4cccc(C(F)(F)F)c4)c(Cl)c3)c21
In short: as §1

[3] = compound: CC(C)C1=C2N=C(C=C(N2N=C1)NCC3=CC=CC=C3)NCCCCCCN
In short: as §1

[4] = compound: CC(C)C[C@@H](C=O)NC(=O)[C@H](CC(C)C)NC(=O)[C@H](CC(C)C)NC(=O)OCc1ccccc1
In short: as §1

[5] = compound: CC1=C(C(CC(=O)N1)C2=CC=C(C=C2)C(F)(F)F)C(=O)NC3=C(C=C4C(=C3)C=NN4)F
In short: as §1

[6] = compound: CC1=C(C2=C(C=C1)C(=O)C3=CC=CC=C3N2CCCN)C
In short: as §1

[7] = compound: CC1=C(C=C(C=C1)NC(=O)C2=CC(=CC=C2)C(C)(C)C#N)NC3=CC4=C(C=C3)N=CN(C4=O)C
In short: as §1

[8] = compound: CC1=C(C=C(C=C1)NC(=O)C2=CC(=CC=C2)N(C)C)NC(=O)C3=CC=C(C=C3)O
In short: as §1

Nexturastat A = compound: CCCCN(Cc1ccc(C(=O)NO)cc1)C(=O)Nc1ccccc1 [Nexturastat A]
In short: as §1

vemurafenib = compound: CCCS(=O)(=O)Nc1ccc(F)c(C(=O)c2c[nH]c3ncc(-c4ccc(Cl)cc4)cc23)c1F [vemurafenib]
In short: as §1

[9] = compound: CCCc1cc(C)[nH]c(=O)c1CNC(=O)c1cc(-c2ccnc(N3CCN(C)CC3)c2)cc2c1cnn2C(C)C
In short: as §1

givinostat = compound: CCN(CC)Cc1ccc2cc(COC(=O)Nc3ccc(C(=O)NO)cc3)ccc2c1 [givinostat]
In short: as §1

barasertib = compound: CCN(CCCOc1ccc2c(Nc3cc(CC(=O)Nc4cccc(F)c4)[nH]n3)ncnc2c1)CCOP(=O)(O)O [barasertib]
In short: as §1

[10] = compound: CC1=CC=C(C=C1)SC2=C3C=C(SC3=CN=C2)C(=O)N
In short: as §1

[11] = compound: CCCS(=O)(=O)Nc1ccc(F)c(C(=O)c2c[nH]c3ncc(Cl)cc23)c1F
In short: as §1

Target	log2 fold change (ibrutinib)	log2 fold change [1]	log2 fold change (ralimetinib)	log2 fold change [2]	log2 fold change [3]	log2 fold change [4]	log2 fold change [5]	log2 fold change [6]	log2 fold change [7]	log2 fold change [8]	log2 fold change (Nexturastat A)	log2 fold change (vemurafenib)	log2 fold change [9]	log2 fold change (givinostat)	log2 fold change (barasertib)	log2 fold change [10]	log2 fold change [11]
TLR9 isoform 4 (UniProt Q9NR96)	inactive: 0.071	inactive: 0.13	inactive: 0.052	inactive: 0.011	inactive: -0.038	inactive: -0.016	inactive: -0.005	inactive: 0.11	inactive: -0.047	inactive: -0.045	inactive: -0.127	inactive: -0.1	inactive: -0.036	inactive: -0.01	inactive: 0.006		
TMCO3 (UniProt Q6UWJ1)			inactive: 0.045	inactive: 0.02		inactive: -0.091			inactive: 0.014	inactive: 0.026	inactive: 0.054	inactive: 0.16	inactive: 0.254				
TMEM256 (UniProt Q8N2U0)					inactive: -0.342									inactive: -0.204			
TMEM242 (UniProt Q9NWH2)	inactive: 0.035	inactive: 0.022	inactive: -0.073	inactive: 0.025	inactive: 0.017	inactive: 0.033	inactive: -0.073	inactive: 0.114	inactive: -0.057	inactive: 0	inactive: 0.079	inactive: 0.078	inactive: -0.037	inactive: -0.088	inactive: 0.008	inactive: 0.018	inactive: -0.064
TMPO (UniProt G5E972)					inactive: 0.097								inactive: 0.108	inactive: 0.066			
TMEM94 isoform 2 (UniProt Q12767)		inactive: -0.216			inactive: 0.096									inactive: 0.19			
TMEM268 isoform 3 (UniProt Q5VZI3)	inactive: 0.036	inactive: -0.042	inactive: -0.056	inactive: -0.334	inactive: -0.095	inactive: -0.016		inactive: 0.014	inactive: 0.056	inactive: 0.024	inactive: 0.124		inactive: 0.18	inactive: 0.11	inactive: -0.461	inactive: -0.178	inactive: 0.083
TMEM147 (UniProt Q9BVK8)	inactive: 0.014	inactive: -0.094	inactive: -0.127	inactive: -0.065	inactive: -0.106	inactive: -0.033	inactive: 0.056	inactive: -0.062	inactive: 0.029	inactive: 0.056	inactive: -0.114	inactive: 0.046	inactive: -0.192	inactive: -0.028	inactive: 0.054	inactive: -0.069	inactive: 0.091
TMEM127 (UniProt O75204)		inactive: -0.101			inactive: -0.184		inactive: -0.088	inactive: -0.003						inactive: 0.028			
TMEM237 isoform 3 (UniProt Q96Q45)				inactive: -0.17	inactive: 0.112			inactive: -0.183	inactive: 0.008		inactive: 0.04	inactive: -0.174	inactive: 0.216	inactive: -0.209			
TLR4 (UniProt O00206)	inactive: 0.034		inactive: 0.097		inactive: 0.205	inactive: -0.025		inactive: 0.037	inactive: -0.151	inactive: -0.055		inactive: -0.134		inactive: 0.268	inactive: 0.011	inactive: -0.085	inactive: -0.193
TMEM8A (UniProt Q9HCN3)	inactive: 0.06		inactive: -0.131		active: -0.445	inactive: -0.036		inactive: 0.044	inactive: 0.101	inactive: 0.017		inactive: -0.003	inactive: -0.077	inactive: 0.014	inactive: -0.189	inactive: -0.047	inactive: -0.073
TMEM273 isoform 2 (UniProt Q5T292)		inactive: -0.101					inactive: 0.053	inactive: -0.042				inactive: -0.026					
TMEM184B (UniProt Q9Y519)	inactive: 0.056				inactive: -0.226		inactive: 0.063	inactive: 0.065	inactive: -0.076				inactive: 0.05	inactive: -0.048	inactive: -0.063	inactive: -0.041	inactive: 0.057
TMBIM1 (UniProt Q969X1)	inactive: 0.037	inactive: -0.126	inactive: 0.264	inactive: 0.16	inactive: -0.066	inactive: -0.166		inactive: 0.089	inactive: 0.113	inactive: -0.055	inactive: -0.02	inactive: -0.132	inactive: -0.134	inactive: 0.004	inactive: -0.057	inactive: 0.09	inactive: 0.185

An excerpt from further up, for reference:
Target	log2 fold change (ibrutinib)	log2 fold change [1]	log2 fold change (ralimetinib)	log2 fold change [2]	log2 fold change [3]	log2 fold change [4]	log2 fold change [5]	log2 fold change [6]	log2 fold change [7]	log2 fold change [8]	log2 fold change (Nexturastat A)	log2 fold change (vemurafenib)	log2 fold change [9]	log2 fold change (givinostat)	log2 fold change (barasertib)	log2 fold change [10]	log2 fold change [11]
TMEM242 (UniProt Q9NWH2)	inactive: 0.035	inactive: 0.022	inactive: -0.073	inactive: 0.025	inactive: 0.017	inactive: 0.033	inactive: -0.073	inactive: 0.114	inactive: -0.057	inactive: 0	inactive: 0.079	inactive: 0.078	inactive: -0.037	inactive: -0.088	inactive: 0.008	inactive: 0.018	inactive: -0.064
TMPO (UniProt G5E972)					inactive: 0.097								inactive: 0.108	inactive: 0.066			
TMEM94 isoform 2 (UniProt Q12767)		inactive: -0.216			inactive: 0.096									inactive: 0.19			
TMEM268 isoform 3 (UniProt Q5VZI3)	inactive: 0.036	inactive: -0.042	inactive: -0.056	inactive: -0.334	inactive: -0.095	inactive: -0.016		inactive: 0.014	inactive: 0.056	inactive: 0.024	inactive: 0.124		inactive: 0.18	inactive: 0.11	inactive: -0.461	inactive: -0.178	inactive: 0.083
